In patent US10858367B2, “Compounds” (GLAXOSMITHKLINE INTELLECTUAL PROPERTY DEVELOPMENT LIMITED, priority 2017, dated 2020):
Some results were stated once for a whole list of compounds, not compound by compound.

Sequences of proteins named here, by UniProt entry; tags and fusion partners are left off. A line that says so, or that is headed by a name, gives the form on record, which may keep a tag or linker.
UniProt Q5S007, with tags, fused parts or gaps R50H: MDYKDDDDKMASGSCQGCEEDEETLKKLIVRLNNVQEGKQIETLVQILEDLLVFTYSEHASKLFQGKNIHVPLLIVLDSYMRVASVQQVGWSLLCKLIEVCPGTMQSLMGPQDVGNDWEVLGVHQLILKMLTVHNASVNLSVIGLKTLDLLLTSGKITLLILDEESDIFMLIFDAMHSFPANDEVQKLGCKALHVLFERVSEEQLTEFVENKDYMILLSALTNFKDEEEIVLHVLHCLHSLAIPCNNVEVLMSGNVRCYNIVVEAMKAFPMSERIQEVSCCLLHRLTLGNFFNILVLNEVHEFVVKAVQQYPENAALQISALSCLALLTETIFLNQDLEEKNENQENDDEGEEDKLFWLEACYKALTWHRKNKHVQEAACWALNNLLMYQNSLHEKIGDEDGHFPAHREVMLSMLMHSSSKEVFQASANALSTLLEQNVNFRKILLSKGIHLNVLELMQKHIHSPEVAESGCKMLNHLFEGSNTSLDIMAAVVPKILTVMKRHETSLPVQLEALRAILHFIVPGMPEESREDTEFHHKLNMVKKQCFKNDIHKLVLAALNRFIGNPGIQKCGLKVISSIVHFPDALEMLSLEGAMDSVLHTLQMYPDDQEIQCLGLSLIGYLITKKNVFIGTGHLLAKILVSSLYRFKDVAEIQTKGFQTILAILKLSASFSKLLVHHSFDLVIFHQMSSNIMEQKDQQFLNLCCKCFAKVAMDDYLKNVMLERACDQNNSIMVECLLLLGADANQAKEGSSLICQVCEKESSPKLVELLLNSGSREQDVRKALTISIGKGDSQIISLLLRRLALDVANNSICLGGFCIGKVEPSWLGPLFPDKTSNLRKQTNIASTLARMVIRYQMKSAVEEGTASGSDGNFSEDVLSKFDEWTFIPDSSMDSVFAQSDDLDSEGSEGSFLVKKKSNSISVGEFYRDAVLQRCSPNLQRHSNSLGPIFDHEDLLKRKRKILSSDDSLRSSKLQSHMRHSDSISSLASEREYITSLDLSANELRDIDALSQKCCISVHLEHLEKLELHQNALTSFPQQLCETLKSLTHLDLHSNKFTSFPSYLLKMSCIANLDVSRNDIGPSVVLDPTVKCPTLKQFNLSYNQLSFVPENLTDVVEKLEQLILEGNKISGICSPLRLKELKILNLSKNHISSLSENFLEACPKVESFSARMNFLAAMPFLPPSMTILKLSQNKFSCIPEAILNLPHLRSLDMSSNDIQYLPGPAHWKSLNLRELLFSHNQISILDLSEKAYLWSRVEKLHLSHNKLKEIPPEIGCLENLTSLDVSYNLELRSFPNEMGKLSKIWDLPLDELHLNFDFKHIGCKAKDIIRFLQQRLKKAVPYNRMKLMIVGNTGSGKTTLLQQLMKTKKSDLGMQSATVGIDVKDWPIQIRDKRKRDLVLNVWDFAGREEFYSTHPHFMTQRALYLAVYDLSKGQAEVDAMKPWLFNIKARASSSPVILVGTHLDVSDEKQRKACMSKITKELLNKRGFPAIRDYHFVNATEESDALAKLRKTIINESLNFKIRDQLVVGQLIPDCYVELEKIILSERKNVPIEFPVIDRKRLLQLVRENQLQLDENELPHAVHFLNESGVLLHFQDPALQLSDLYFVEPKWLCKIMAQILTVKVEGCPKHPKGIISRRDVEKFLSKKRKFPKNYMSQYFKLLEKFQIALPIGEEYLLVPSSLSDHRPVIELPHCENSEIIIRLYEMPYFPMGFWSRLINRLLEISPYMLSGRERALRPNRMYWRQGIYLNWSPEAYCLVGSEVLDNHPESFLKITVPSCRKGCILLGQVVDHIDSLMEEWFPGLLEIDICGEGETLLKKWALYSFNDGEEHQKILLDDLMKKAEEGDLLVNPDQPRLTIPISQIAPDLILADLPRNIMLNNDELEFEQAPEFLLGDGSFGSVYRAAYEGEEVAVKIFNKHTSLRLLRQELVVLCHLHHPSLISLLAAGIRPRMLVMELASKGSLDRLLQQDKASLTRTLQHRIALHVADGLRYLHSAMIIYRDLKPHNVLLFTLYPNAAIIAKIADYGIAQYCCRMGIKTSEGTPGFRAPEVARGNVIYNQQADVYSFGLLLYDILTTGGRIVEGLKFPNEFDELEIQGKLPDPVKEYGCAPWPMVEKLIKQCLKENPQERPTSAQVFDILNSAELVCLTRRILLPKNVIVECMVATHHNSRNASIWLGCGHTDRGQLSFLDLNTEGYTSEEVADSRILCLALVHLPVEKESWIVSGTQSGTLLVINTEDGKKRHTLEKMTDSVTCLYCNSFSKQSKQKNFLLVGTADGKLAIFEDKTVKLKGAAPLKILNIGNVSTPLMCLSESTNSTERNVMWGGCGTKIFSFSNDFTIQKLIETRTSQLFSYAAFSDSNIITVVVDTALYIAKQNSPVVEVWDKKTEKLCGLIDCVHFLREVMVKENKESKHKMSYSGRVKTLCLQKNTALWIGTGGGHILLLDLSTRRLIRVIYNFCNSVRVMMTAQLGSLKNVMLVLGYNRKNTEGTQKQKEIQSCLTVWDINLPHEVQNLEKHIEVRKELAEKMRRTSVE

What follows are compounds tested against T1, LRRK2 Ser935 phosphorylation in SH-SY5Y cells over-expressing recombinant full length LRRK2 (Homo sapiens, UniProt Q5S007) (assay: Recombinant cellular LRRK2 AlphaScreen assay). Details: human neuroblastoma SH-SY5Y cells, BacMam full length LRRK2, 60 minutes with compound.
T1 construct: A BacMam virus expressing full length recombinant LRRK2 was purchased from Invitrogen; host or cells: SH-SY5Y human neuroblastoma cells transduced with BacMam LRRK2 virus
Format: cell-based
From the text: b. Recombinant Cellular LRRK2 AlphaScreen Assay
To determine the activity of compounds against LRRK2 kinase activity in cells, the observed LRRK2 kinase-dependent modulation of LRRK2 Ser 935 phosphorylation (Dzamko et al., 2010, Biochem. J. 430: 405-413) was utilized to develop a quantitative 384 well plate-based immunoassay of LRRK2 Ser935 phosphorylation in the human neuroblastoma cell line SH-SY5Y, engineered to over-express recombinant full length LRRK2 protein.
A BacMam virus expressing full length recombinant LRRK2 was purchased from Invitrogen and amplified by inoculation of SF-9 cells at MOI 0.3 for 4-5 days in Sf-900 III SFM medium supplemented with 3% fetal bovine serum. Infected cell cultures were then centrifuged at 2000 g for 20 minutes, viral supernatant titer determined by anti-gp64 plaque assay and stored at 4° C.
Affinity-purified anti-phospho LRRK2 Ser935 sheep polyclonal antibody (Dzamko et al., 2010, Biochem. J. 430: 405-413) was biotinylated by standard methods (PerkinElmer). Anti-LRRK2 rabbit polyclonal antibody was purchased from Novus Biologicals. AlphaScreen Protein A IgG Kit (including acceptor and donor beads) was purchased from Perkin Elmer.
SH-SY5Y cells were grown in DMEM/F12 medium with 10% dialysed fetal bovine serum and harvested by treatment with 0.5% trypsin-EDTA for 5 minutes at 37° C. followed by centrifugation at 1000 rpm for 4 minutes. The cell pellet was resuspended in Opti-MEM reduced serum media (Invitrogen) at 200,000 cells/ml and mixed with the BacMam LRRK2 virus at MOI=50. 50 μl cell solutions were then dispensed to each well of a 384-well plate and incubated at 37° C., 5% CO2 for 24 hours.
Serial dilutions of test compounds were prepared in Opti-MEM reduced serum media (Invitrogen) and 5.6 ul transferred from compound plate to cell assay plate to achieve a top final assay concentration of 10 uM. DMSO was used in certain wells as controls. Cells were incubated at 37° C., 5% CO2 for 60 minutes. The medium was then removed and cells lysed by addition of 20 ul cell lysis buffer (Cell Signaling Technology) and incubation at 4° C. for 20 minutes. 10 ul of antibody/acceptor bead mix [(1/1000 biotinylated-pS935 LRRK2 antibody, 1/1000 total-LRRK2 antibody, 1/100 Acceptor beads in AlphaScreen detection buffer (25 mM Hepes (pH 7.4), 0.5% Triton X-100, 1 mg/ml Dextran 500 and 0.1% BSA)] was then added to each well and plates incubated for 2 hours at ambient temperature in the dark. 10 μl of donor beads solution (1/33.3 donor beads in AlphaScreen detection buffer) was then added to each well. Following incubation for a further 2 hours at ambient temperature in the dark, plates were read on an EnVision™ plate reader at emission 520-620 nm with excitation 680 nm. Dose response curve data was based on sigmoidal dose-response model.

Row | SMILES | pIC50 in the recombinant cellular LRRK2 AlphaScreen assay
1 | Cc1nc(N2C[C@H]3C[C@@H]2CO3)cc(-n2ncc3cc(C)c(C4CCN(C5CCOC5)CC4F)cc32)n1 (single isomer, unassigned) [Example E148] | ≥ 7
2 | Cc1nc(N2CC3CC2CO3)cc(-n2ncc3cc(C)c(C4CCN(CCO)CC4F)cc32)n1 (single isomer, unassigned) [Example E24] | ≥ 6
3 | Cc1nc(N2C[C@@]3(CO)C[C@@H]2CO3)cc(-n2ncc3cc(C)c(C4CCN([C@H]5CCOC5)CC4)cc32)n1 [Example E142, ((1R,4R)-5-(2-methyl-6-(5-methyl-6-(1-((S)-tetrahydrofuran-3-yl)piperidin-4-yl)-1H-indazol-1-yl)pyrimidin-4-yl)-2-oxa-5-azabicyclo[2.2.1]heptan-1-yl)methanol] | ≥ 7
4 | COC(=O)CCN1CCC(c2cc3c(cnn3-c3cc(N4C[C@@H]5C[C@H]4CO5)nc(C)n3)cc2C)CC1 [Example E163, Methyl 3-(4-(1-(6-((1S,4S)-2-oxa-5-azabicyclo[2.2.1]heptan-5-yl)-2-methylpyrimidin-4-yl)-5-methyl-1H-indazol-6-yl)piperidin-1-yl)propanoate] | ≥ 7
5 | Cc1nc(N2C[C@@H]3C[C@H]2CO3)cc(-n2ncc3cc(C)c(C4CCN(CCC(=O)O)CC4F)cc32)n1 (single isomer, unassigned) [Example E156] | ≥ 7
6 | Cc1nc(N2CC3(CO)CC2CO3)cc(-n2ncc3cc(C)c(C4CCN(C5CCOC5)CC4)cc32)n1 (single isomer, unassigned) [Example E152, (5-(2-methyl-6-(5-methyl-6-(1-(tetrahydrofuran-3-yl)piperidin-4-yl)-1H-indazol-1-yl)pyrimidin-4-yl)-2-oxa-5-azabicyclo[2.2.1]heptan-1-yl)methanol] | ≥ 7
7 | COc1nc(N2C[C@H]3C[C@@H]2CO3)cc(-n2ncc3cc(C)c(C4CCN(CCC(=O)O)CC4F)cc32)n1 (single isomer, unassigned) [Example E159] | ≥ 7
8 | COc1nc(N2CC3CC2CO3)cc(-n2ncc3cc(C)c(C4CCN(C5COC5)CC4O)cc32)n1 (single isomer, unassigned) [Example E133] | ≥ 7

The compounds below were run against T2, full length G2019 human LRRK2 (Homo sapiens, UniProt Q5S007, R50H) (assay: Full length G2019 human LRRK2 Inhibition Mass Spectrometry assay). Details: 25 nM LRRK2 enzyme, 25 uM LRRKtide, 2 mM ATP; RapidFire mass spectrometry.
T2 construct: made in house; host or cells: HEK293 6E cells transduced with BacMam virus (virus generated in Sf9 cells)
Format: biochemical

Row | SMILES | pIC50 in the full length G2019 human LRRK2 Inhibition Mass Spectrometry assay
9 | COc1nc(N2C[C@H]3C[C@@H]2CO3)cc(-n2ncc3cc(C)c(C4CCN(CCC(=O)O)CC4F)cc32)n1 (single isomer, unassigned) [Example E159] | ≥ 7.0
